Results published in PubChem BioAssay AID330 (DTP/NCI, 2004).
The list is a part of this screen's results and no random one: it is rich in T/C values a quarter to a half above the control, in often repeated tests (any T/C) and in doses without a T/C. Further doses and runs are listed elsewhere. T/C is the treated group as % of the vehicle group. Some entries give survivors of the animals treated and no T/C: the source files T/C as zero there, which appears to mark a toxic dose or a test without result, not a measured value. Some doses without a T/C left all or most animals alive at the check, yet need not have been tolerated: the source hardly ever lists a survival T/C far under the control, and the zero likely stands for such cases as well. Survivors were counted at the toxicity check, usually on the fifth day, unless a day is given; later deaths do not show. Schedule codes are those of the source, read here as Q, the interval in days (D) or hours (H), X, the number of doses. Some doses were run more than once; the values are given in rising order. For survival time, the PubChem record calls one and a half times the control and up active, and a quarter to a half above the control has no call in these data; cut-offs in other NCI protocols can differ. Counts like (3×) count equal records among those shown.

Test system: P388 leukemia ip, CD2F1 mice, survival T/C
Test: NCI In Vivo Anticancer Drug Screen. Data for tumor model P388 Leukemia (intraperitoneal) in CD2F1 (CDF1) mice
Conditions: T/C endpoint: median survival time, higher T/C = longer survival
[1] = dose: 120.0 mg/kg/injection, schedule: Q01DX005 (ip), vehicle: saline with Tween-80
[2] = dose: 200.0 mg/kg/injection, schedule: Q01DX005 (ip), vehicle: saline with Tween-80
[3] = dose: 100.0 mg/kg/injection, schedule: Q01DX005 (ip), vehicle: Klucel (hydroxypropylcellulose) (HPC)
[4] = dose: 200.0 mg/kg/injection, schedule: Q01DX009 (ip), vehicle: saline with Tween-80
[5] = dose: 25.0 mg/kg/injection, schedule: Q01DX009 (ip), vehicle: saline
[6] = dose: 50.0 mg/kg/injection, schedule: Q01DX009 (ip), vehicle: saline
[7] = dose: 100.0 mg/kg/injection, schedule: Q01DX009 (ip), vehicle: saline
[8] = dose: 200.0 mg/kg/injection, schedule: Q01DX009 (ip), vehicle: saline
[9] = dose: 200.0 mg/kg/injection, schedule: Q01DX005 (ip), vehicle: Klucel (hydroxypropylcellulose) (HPC)
[10] = dose: 100.0 mg/kg/injection, schedule: Q01DX005 (ip), vehicle: saline with Tween-80
[11] = dose: 50.0 mg/kg/injection, schedule: Q01DX005 (ip), vehicle: saline with Tween-80
[12] = dose: 240.0 mg/kg/injection, schedule: Q01DX005 (ip), vehicle: Klucel (hydroxypropylcellulose) (HPC)

## O=C(O)c1c[nH]c2cc(-n3cccc3)ccc2c1=O
[1]
  survivor count: 1 of 6
dose: 240.0 mg/kg/injection, schedule: Q01DX005 (ip), vehicle: saline with Tween-80
  survivor count: 0 of 6

## [Cl][Pt+2][Cl].[NH-]c1ccc([N+](=O)[O-])cc1[NH-]
dose: 25.0 mg/kg/injection, schedule: Q04DX002 (ip), vehicle: saline with Tween-80
  T/C: 137 % of control

## CCC(C)C(F)C(=O)O (stereo not given)
[2]
  survivor count: 3 of 6

## CCC1(O)C(=O)OCc2c1cc1n(c2=O)Cc2c-1nc1ccccc1c2OC (stereo not given)
dose: 50.0 mg/kg/injection, schedule: Q01DX009 (ip), vehicle: suspension in saline
  survivor count: 6 of 6
dose: 100.0 mg/kg/injection, schedule: Q01DX009 (ip), vehicle: suspension in saline
  survivor count: 5 of 6
dose: 200.0 mg/kg/injection, schedule: Q01DX009 (ip), vehicle: suspension in saline
  survivor count: 3 of 6

## Cc1cn(CCCCCCOc2c3occc3cc3ccc(=O)oc23)c(=O)[nH]c1=O
[3]
  survivor count: 5 of 6

## COc1cc2c[n+]3c4c(cccc4c2cc1OC)CC3
dose: 200.0 mg/kg/injection, schedule: Q01DX009 (ip), vehicle: water
  survivor count: 0 of 6
dose: 400.0 mg/kg/injection, schedule: Q01DX009 (ip), vehicle: water
  survivor count: 0 of 6

## C(=N\N1CCCCCC1)/c1ccc2c(c1)OCO2
[4]
  survivor count: 5 of 6

## O=c1cc(O)cc[nH]1
[5]
  T/C: 98, 103, 106 % of control (2×)
[6]
  T/C: 96, 98, 100, 103 % of control
[7]
  T/C: 100, 101 (2×), 126 % of control
[8]
  T/C: 99, 100 (2×), 105 % of control

## O=C1Cc2ccccc2CC1CC1Cc2ccccc2CC1=O (stereo not given)
dose: 100.0 mg/kg/injection, schedule: Q01DX009 (ip), vehicle: Klucel (hydroxypropylcellulose) (HPC)
  survivor count: 6 of 6

## S=C(NCCc1ccccc1)N/N=C/c1ccc(Cl)cc1
[9]
  survivor count: 6 of 6

## O=C(Nn1c(=S)[nH]c2ccccc2c1=O)c1ccc([N+](=O)[O-])cc1
dose: 240.0 mg/kg/injection, schedule: Q01DX005 (ip), vehicle: Klucel + Tween-80
  survivor count: 5 of 6

## CCCn1c(C)nc2cc(C)cc(N)c21
[10]
  survivor count: 0 of 6
[2]
  survivor count: 0 of 6

## CC(=O)N(C)c1ccc(N=Nc2ccc3ncccc3c2)cc1
[11]
  survivor count: 5 of 5

## C/C(=N\O)C(C)(O)C(C)(C)C (stereo not given)
[4]
  survivor count: 5 of 6

## O=C(Nc1ccc(Cl)cc1)Nc1nnc2nc(C3(c4nc5nnc(NC(=O)Nc6ccc(Cl)cc6)n5[nH]c4=O)CCCC3=O)c(=O)[nH]n12
[1]
  survivor count: 6 of 6

## Cc1nn(-c2ccccc2)c2oc3ccc(Cl)cc3c(=O)c12
dose: 240.0 mg/kg/injection, schedule: Q01DX005 (ip), vehicle: saline
  survivor count: 5 of 6

## O=C1OC2C(O1)C1(c3ccccc3)C(=O)C2(c2ccccc2)C(c2ccccc2)=C1c1ccccc1 (stereo not given)
dose: 50.0 mg/kg/injection, schedule: Q01DX009 (ip), vehicle: saline with Tween-80
  survivor count: 6 of 6
[4]
  survivor count: 6 of 6

## O=C(O)CCCC(=O)NC1CC2c3ccccc3C1c1ccccc12 (stereo not given)
dose: 300.0 mg/kg/injection, schedule: Q01DX009 (ip), vehicle: saline with Tween-80
  survivor count: 5 of 6

## O=[N+]([O-])c1ccc(SSc2ccc([N+](=O)[O-])s2)s1
dose: 200.0 mg/kg/injection, schedule: Q01DX001 (ip), vehicle: Klucel (hydroxypropylcellulose) (HPC)
  survivor count: 3 of 6
dose: 400.0 mg/kg/injection, schedule: Q01DX001 (ip), vehicle: Klucel (hydroxypropylcellulose) (HPC)
  survivor count: 0 of 6

## CCN(CC)CCCNc1cc(OC)cc2nc3ccccc3nc12
dose: 200.0 mg/kg/injection, schedule: Q01DX005 (ip), vehicle: saline
  survivor count: 0 of 5

## COCCCNC(=O)c1nnn2c1nc(N)c1cc(Cl)ccc12
[9]
  survivor count: 6 of 6

## c1cnc2c(c1)n[n+]1[n-]c3ccccc3n21
[12]
  survivor count: 3 of 6

## CNc1nc(NC)nc(NC)n1
[8]
  survivor count: 6 of 6
dose: 400.0 mg/kg/injection, schedule: Q01DX009 (ip), vehicle: saline
  survivor count: 0 of 6

## C=C(C)[C@H]1CN[C@H](C(=O)O)[C@H]1CC(=O)O
dose: 60.0 mg/kg/injection, schedule: Q01DX005 (ip), vehicle: saline
  survivor count: 2 of 5

## CC(C)c1nnc2cc3oc4ccccc4c3cc2c1N
[10]
  survivor count: 0 of 5
[2]
  survivor count: 0 of 5

## C/C(CCl)=N\NC1=NC2(CCCCC2)P(=O)(NNc2ncccn2)S1 (stereo not given)
dose: 150.0 mg/kg/injection, schedule: Q01DX005 (ip), vehicle: Klucel (hydroxypropylcellulose) (HPC)
  survivor count: 0 of 6
[12]
  survivor count: 0 of 6

## CCN(CC)CCCNc1c(OC)cc(C)c2sc3ccccc3c(=O)c12
[7]
  survivor count: 3 of 6
[8]
  survivor count: 0 of 6

## Cc1cc(N/N=C/c2ccc([N+](=O)[O-])cc2)c2cc3c(cc2n1)OCO3
[3]
  survivor count: 1 of 6
[9]
  survivor count: 0 of 6

## CCCC(=O)Nc1nc2ccc([N+](=O)[O-])cc2s1
dose: 12.5 mg/kg/injection, schedule: Q01DX009 (ip), vehicle: saline
  survivor count: 6 of 6
[5]
  survivor count: 6 of 6
[6]
  survivor count: 6 of 6
[7]
  survivor count: 6 of 6

## OCCCC1CCCCN1 (stereo not given)
dose: 100.0 mg/kg/injection, schedule: Q01DX001 (ip), vehicle: saline
  survivor count: 6 of 6

## CC[CH2][Sn](=[O])[c]1ccccc1
[7]
  T/C: 130 and 134 % of control

## COc1cc(OC)c2c[n+](C)c3c4cc(OC)c(OC)cc4ccc3c2c1
dose: 5.0 mg/kg/injection, schedule: Q01DX009 (ip), vehicle: saline with Tween-80
  T/C: 143 % of control
dose: 10.0 mg/kg/injection, schedule: Q01DX009 (ip), vehicle: saline with Tween-80
  T/C: 146 % of control

## C[S+](C)CCCNC(=O)c1csc(-c2csc(-c3cscn3)n2)n1
dose: 25.0 mg/kg/injection, schedule: Q01DX005 (ip), vehicle: saline
  survivor count: 0 of 6

## COC(=O)[C@H]1[C@H]2C[C@@H]3c4[nH]c5ccccc5c4CCN3C[C@H]2C[C@@H](OC(=O)c2cc(OC)c(OC)c(OC)c2)[C@@H]1OC
[11]
  survivor count: 6 of 6
[10]
  survivor count: 6 of 6
[2]
  survivor count: 4 of 6

## CCN(CC)c1c(C)nnc2c3cccnc3nn12
dose: 200.0 mg/kg/injection, schedule: Q01DX001 (ip), vehicle: saline with Tween-80
  survivor count: 0 of 6
dose: 400.0 mg/kg/injection, schedule: Q01DX001 (ip), vehicle: saline with Tween-80
  survivor count: 0 of 6

## Cc1ccc2[nH]c(=O)oc2c1
dose: 100.0 mg/kg/injection, schedule: Q04DX002 (ip), vehicle: saline with Tween-80
  survivor count: 1 of 6 and 2 of 6
dose: 200.0 mg/kg/injection, schedule: Q04DX002 (ip), vehicle: saline with Tween-80
  survivor count: 0 of 6
dose: 400.0 mg/kg/injection, schedule: Q04DX002 (ip), vehicle: saline with Tween-80
  survivor count: 0 of 6
